Results reported in publication PMC12011380.
These are yes or no findings as the source states them, for the method shown. In cells and extracts the contact can be indirect. These calls come from enrichment with a bait or labelling near it, and not all partners need be listed.

Amino acid sequences for entries named in this document (tags omitted).
UniProt Q9H2G2: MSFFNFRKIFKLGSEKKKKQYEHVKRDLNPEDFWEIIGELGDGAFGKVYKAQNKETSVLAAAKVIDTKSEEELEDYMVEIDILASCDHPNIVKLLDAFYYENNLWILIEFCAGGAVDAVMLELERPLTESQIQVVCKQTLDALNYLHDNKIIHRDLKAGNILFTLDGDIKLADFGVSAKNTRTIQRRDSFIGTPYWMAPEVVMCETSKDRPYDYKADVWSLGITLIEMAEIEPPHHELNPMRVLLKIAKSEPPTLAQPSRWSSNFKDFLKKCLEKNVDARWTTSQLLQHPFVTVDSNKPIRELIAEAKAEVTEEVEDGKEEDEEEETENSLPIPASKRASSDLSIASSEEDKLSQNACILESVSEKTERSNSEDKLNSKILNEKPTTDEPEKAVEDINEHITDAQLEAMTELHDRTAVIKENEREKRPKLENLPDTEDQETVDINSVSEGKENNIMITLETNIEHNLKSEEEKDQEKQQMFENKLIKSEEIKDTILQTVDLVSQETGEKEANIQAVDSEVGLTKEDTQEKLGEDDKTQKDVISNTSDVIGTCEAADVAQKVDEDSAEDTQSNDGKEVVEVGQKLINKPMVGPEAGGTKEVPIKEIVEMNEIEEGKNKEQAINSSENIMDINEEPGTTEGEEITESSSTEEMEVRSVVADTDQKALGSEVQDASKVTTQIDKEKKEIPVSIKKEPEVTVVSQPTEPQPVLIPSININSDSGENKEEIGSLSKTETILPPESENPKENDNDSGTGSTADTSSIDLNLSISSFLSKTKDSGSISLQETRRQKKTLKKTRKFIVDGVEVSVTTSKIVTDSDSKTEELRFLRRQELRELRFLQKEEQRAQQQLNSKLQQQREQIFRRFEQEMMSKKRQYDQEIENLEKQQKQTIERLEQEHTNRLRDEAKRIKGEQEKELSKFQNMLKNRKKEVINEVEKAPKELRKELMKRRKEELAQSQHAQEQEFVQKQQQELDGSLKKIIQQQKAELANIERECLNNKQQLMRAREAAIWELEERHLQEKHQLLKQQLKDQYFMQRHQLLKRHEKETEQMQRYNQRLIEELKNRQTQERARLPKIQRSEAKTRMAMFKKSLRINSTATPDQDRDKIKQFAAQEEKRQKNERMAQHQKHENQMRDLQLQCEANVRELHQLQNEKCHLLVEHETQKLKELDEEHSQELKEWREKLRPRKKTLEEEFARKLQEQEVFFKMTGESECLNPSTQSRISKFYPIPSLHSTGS
UniProt Q14980: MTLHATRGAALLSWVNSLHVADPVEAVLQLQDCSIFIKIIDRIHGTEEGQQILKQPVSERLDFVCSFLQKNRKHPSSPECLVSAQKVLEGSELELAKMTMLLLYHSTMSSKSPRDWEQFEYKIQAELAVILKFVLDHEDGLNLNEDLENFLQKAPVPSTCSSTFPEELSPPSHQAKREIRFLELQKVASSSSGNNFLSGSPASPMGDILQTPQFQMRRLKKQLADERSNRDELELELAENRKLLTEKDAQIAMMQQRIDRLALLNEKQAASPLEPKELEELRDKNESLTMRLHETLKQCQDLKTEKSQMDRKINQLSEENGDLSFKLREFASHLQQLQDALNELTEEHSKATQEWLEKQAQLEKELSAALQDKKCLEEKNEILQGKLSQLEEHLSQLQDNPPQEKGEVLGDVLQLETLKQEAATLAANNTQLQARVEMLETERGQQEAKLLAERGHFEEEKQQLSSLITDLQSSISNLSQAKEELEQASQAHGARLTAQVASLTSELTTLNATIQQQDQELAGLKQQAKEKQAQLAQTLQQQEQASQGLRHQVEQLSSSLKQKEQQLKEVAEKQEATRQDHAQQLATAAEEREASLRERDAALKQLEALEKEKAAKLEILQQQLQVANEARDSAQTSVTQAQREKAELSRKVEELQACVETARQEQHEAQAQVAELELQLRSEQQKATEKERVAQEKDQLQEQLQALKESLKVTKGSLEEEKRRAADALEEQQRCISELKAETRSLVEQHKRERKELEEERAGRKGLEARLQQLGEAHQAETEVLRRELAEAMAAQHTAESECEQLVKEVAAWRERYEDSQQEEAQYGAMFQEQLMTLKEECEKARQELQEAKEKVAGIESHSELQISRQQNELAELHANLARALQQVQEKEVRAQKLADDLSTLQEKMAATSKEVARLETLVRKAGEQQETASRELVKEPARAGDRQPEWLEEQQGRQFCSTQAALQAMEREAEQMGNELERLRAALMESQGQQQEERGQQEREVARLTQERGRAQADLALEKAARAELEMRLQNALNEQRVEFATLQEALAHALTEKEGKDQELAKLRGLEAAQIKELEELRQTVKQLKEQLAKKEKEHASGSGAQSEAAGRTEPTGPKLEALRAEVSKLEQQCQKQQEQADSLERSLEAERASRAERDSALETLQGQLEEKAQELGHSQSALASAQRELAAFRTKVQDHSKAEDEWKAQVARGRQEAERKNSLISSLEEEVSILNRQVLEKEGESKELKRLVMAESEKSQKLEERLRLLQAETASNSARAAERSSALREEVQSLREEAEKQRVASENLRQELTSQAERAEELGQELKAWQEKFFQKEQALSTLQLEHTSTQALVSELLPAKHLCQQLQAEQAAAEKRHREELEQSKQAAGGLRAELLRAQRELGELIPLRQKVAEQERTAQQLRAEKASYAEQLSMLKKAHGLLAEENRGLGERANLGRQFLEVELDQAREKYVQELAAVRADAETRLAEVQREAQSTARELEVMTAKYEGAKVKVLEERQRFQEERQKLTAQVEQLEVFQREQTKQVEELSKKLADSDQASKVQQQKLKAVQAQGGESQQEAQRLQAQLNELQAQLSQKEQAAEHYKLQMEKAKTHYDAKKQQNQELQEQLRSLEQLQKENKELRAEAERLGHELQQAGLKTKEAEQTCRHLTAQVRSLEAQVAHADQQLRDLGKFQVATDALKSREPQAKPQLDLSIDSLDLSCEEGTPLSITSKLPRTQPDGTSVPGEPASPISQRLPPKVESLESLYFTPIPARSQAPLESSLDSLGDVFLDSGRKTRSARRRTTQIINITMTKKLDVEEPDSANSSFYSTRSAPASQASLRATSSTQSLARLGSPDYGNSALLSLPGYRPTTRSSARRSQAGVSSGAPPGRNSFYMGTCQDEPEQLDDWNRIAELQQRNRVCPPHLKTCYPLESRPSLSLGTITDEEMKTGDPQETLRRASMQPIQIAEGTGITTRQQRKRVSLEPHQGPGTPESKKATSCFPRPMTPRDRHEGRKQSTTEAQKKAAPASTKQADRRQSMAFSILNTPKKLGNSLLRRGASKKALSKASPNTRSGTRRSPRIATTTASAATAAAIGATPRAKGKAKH
UniProt P53350: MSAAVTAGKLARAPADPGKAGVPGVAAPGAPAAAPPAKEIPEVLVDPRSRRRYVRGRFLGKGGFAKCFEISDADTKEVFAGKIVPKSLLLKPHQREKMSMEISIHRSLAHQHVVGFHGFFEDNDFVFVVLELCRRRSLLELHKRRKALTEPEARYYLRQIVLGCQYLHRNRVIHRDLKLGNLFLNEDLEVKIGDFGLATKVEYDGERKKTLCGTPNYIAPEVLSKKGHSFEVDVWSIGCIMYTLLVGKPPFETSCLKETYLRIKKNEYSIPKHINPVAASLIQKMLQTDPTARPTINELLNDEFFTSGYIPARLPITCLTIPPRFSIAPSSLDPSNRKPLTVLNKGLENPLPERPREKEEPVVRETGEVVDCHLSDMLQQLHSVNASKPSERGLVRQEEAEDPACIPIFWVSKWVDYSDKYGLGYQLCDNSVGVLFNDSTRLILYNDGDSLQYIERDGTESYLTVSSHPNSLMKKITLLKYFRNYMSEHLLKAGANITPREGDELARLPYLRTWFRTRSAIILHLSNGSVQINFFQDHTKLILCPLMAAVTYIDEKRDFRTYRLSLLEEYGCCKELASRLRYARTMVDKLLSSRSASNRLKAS

T1: FANCA (human (endogenous in HeLa)) (UniProt O15360)
T1 sequence: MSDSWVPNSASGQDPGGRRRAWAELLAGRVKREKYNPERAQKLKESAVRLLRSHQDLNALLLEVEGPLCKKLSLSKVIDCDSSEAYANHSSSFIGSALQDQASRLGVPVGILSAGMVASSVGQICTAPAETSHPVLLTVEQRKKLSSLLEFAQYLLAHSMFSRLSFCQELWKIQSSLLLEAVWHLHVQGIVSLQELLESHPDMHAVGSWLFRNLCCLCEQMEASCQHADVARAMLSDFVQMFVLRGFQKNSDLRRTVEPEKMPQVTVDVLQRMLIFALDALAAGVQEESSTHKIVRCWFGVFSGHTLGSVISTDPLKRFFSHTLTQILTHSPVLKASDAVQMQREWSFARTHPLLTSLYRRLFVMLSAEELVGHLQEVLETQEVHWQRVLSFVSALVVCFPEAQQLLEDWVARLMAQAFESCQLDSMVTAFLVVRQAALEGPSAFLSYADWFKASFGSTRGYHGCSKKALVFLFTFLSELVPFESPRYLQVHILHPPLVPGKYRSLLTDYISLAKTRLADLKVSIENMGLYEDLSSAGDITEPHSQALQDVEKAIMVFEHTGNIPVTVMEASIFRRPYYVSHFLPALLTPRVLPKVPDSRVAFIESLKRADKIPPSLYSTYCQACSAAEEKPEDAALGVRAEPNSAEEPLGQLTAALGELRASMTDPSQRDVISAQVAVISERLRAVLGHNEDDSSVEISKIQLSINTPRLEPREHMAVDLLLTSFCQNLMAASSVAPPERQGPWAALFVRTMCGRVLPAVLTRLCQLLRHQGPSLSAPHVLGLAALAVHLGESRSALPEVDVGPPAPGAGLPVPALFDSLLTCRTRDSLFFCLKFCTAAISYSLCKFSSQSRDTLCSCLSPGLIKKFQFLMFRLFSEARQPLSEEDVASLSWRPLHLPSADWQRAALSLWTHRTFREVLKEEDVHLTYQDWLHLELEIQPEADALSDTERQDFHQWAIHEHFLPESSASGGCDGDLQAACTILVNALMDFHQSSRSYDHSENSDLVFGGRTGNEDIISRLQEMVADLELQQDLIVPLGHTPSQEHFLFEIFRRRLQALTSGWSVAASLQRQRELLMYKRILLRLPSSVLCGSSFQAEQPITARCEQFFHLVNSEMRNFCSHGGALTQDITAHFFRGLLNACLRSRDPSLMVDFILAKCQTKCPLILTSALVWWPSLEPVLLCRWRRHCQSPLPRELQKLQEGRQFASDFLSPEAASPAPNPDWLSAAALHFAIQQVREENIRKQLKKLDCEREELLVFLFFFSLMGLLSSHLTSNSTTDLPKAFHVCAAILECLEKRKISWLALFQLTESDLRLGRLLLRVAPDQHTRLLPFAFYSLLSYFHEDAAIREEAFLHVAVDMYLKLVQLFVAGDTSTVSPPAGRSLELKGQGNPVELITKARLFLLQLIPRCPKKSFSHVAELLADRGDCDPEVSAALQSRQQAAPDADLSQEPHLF

B1: TTK (protein, UniProt P33981 1-857)
chain: MESEDLSGRELTIDSIMNKVRDIKNKFKNEDLTDELSLNKISADTTDNSGTVNQIMMMANNPEDWLSLLLKLEKNSVPLSDALLNKLIGRYSQAIEALPPDKYGQNESFARIQVRFAELKAIQEPDDARDYFQMARANCKKFAFVHISFAQFELSQGNVKKSKQLLQKAVERGAVPLEMLEIALRNLNLQKKQLLSEEEKKNLSASTVLTAQESFSGSLGHLQNRNNSCDSRGQTTKARFLYGENMPPQDAEIGYRNSLRQTNKTKQSCPFGRVPVNLLNSPDCDVKTDDSVVPCFMKRQTSRSECRDLVVPGSKPSGNDSCELRNLKSVQNSHFKEPLVSDEKSSELIITDSITLKNKTESSLLAKLEETKEYQEPEVPESNQKQWQSKRKSECINQNPAASSNHWQIPELARKVNTEQKHTTFEQPVFSVSKQSPPISTSKWFDPKSICKTPSSNTLDDYMSCFRTPVVKNDFPPACQLSTPYGQPACFQQQQHQILATPLQNLQVLASSSANECISVKGRIYSILKQIGSGGSSKVFQVLNEKKQIYAIKYVNLEEADNQTLDSYRNEIAYLNKLQQHSDKIIRLYDYEITDQYIYMVMECGNIDLNSWLKKKKSIDPWERKSYWKNMLEAVHTIHQHGIVHSDLKPANFLIVDGMLKLIDFGIANQMQPDTTSVVKDSQVGTVNYMPPEAIKDMSSSRENGKSKSKISPKSDVWSLGCILYYMTYGKTPFQQIINQISKLHAIIDPNHEIEFPDIPEKDLQDVLKCCLKRDPKQRISIPELLAHPYVQIQTHPVNQMAKGTTEEMKYVLGQLVGLNSPNSILKAAKTLYEHYSGGESHNSSSSKTFEKKRGKK

How the values were obtained:
[1] = target: T1, FANCA (human (endogenous in HeLa)); experiment: affinity purification with mass spectrometry; endogenous FANCA immunoprecipitated (protein A/G magnetic beads) from lysates of HeLa cells synchronized in G2 (Ro-3306), prometaphase (nocodazole) or metaphase (proTAME); IgG-IP control; on-bead digestion, TMTpro labelling, quantitative LC-MS/MS
[2] = target: T1, FANCA (human (endogenous in HeLa)); experiment: affinity purification with mass spectrometry; independent analysis: endogenous FANCA-IP vs. IgG-IP from prometaphase (nocodazole-treated) HeLa cells; on-bead digestion, label-free LC-MS/MS, spectral counts

| Molecule | binding [1] | binding [2] |
| --- | --- | --- |
| SLK (from UniProt Q9H2G2 1-1235) | binds |  |
| nuclear mitotic apparatus 1 (from UniProt Q14980 1-2115) |  | binds |
| polo-like kinase 1 (from UniProt P53350 1-603) | binds | binds |
| B1 | binds |  |
